# Primary screen of a compound library

Protein sequences, listed by entry. Tags and fused reporters are not part of them.
UniProt I6X8D2, whole entry: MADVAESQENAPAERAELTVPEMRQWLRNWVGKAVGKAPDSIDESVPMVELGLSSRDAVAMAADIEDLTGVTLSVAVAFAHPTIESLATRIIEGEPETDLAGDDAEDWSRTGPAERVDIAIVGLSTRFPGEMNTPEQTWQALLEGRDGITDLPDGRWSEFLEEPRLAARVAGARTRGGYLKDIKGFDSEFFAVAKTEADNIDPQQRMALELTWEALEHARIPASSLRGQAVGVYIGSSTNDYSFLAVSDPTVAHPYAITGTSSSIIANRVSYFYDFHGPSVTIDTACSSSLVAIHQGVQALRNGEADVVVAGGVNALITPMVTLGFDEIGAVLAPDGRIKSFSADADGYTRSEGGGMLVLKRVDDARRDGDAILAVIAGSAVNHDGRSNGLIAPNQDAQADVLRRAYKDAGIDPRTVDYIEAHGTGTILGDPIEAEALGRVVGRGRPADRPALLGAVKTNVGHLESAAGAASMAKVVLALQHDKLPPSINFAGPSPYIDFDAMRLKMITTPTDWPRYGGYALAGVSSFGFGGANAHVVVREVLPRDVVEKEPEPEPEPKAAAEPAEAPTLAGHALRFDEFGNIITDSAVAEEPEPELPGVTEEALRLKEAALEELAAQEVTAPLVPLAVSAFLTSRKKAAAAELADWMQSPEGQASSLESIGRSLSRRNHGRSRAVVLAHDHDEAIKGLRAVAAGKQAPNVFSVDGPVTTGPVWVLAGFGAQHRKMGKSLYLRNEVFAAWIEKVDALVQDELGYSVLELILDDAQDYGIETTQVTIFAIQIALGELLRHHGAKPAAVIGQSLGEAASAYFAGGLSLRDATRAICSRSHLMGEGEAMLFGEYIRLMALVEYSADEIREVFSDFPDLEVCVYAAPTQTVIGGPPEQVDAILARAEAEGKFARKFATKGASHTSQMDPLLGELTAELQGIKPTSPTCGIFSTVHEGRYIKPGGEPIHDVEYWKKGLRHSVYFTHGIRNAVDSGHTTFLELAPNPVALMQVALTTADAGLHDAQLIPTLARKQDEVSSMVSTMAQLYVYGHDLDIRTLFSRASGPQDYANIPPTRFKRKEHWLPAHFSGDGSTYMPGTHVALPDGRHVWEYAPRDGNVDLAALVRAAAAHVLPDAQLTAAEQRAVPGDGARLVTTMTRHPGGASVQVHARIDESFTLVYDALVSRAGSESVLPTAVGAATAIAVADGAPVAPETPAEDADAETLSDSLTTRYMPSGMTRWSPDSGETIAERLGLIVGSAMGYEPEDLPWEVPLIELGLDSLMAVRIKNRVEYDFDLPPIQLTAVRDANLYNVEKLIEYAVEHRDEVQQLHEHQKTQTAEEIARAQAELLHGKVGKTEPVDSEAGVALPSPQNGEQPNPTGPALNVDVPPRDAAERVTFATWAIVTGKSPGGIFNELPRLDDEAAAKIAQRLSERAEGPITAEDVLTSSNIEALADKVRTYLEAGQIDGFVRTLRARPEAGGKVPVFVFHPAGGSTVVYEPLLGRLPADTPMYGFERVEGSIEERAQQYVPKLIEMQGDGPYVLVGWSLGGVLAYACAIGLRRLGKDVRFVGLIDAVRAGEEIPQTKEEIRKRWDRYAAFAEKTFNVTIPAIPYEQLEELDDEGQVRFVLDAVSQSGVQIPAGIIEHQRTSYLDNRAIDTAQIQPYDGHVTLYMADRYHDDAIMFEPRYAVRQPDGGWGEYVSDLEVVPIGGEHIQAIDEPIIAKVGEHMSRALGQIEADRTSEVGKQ
UniProt P9WNZ1, whole entry: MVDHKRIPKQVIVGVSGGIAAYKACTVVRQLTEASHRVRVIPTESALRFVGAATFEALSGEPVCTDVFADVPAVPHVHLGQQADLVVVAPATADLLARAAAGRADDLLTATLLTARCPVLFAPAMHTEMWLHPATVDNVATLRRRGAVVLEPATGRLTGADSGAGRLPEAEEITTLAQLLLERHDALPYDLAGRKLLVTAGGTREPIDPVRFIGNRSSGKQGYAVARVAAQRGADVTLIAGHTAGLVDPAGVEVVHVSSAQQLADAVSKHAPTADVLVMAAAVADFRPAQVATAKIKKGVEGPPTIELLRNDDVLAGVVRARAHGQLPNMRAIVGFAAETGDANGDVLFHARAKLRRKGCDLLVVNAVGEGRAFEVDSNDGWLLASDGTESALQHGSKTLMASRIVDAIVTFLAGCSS
UniProt P9WFT3, whole entry: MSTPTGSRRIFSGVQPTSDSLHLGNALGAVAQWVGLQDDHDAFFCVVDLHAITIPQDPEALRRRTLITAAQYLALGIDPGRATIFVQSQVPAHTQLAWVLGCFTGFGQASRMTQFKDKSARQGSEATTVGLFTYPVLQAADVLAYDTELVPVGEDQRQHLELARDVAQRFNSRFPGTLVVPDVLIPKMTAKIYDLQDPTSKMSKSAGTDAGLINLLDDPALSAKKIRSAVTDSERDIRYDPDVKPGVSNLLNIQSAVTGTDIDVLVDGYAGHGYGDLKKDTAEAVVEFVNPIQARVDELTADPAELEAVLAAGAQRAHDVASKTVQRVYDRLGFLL

A: 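Polyketide synthase Pks13, Mycobacterium tuberculosis (UniProt I6X8D2). Enzyme assay of the thioesterase domain of polyketide synthase 13; the read-out is not stated. Concentration: 30 µM. The record gives no direction; the compounds picked for IC50 retests had high values, so higher reads as stronger inhibition. Size under these conditions: about 67,000 compounds, about 300 of them at 50% or above in at least one test.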
B: 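Enzyme assay of CoaBC with a phosphate dye (Biomol Green) read at 650 nm. Target: Coenzyme A biosynthesis protein CoaBC, Mycobacterium tuberculosis (UniProt P9WNZ1). Compounds at 30 µM. Higher reads as stronger inhibition, judged from the few compounds that gave an IC50. Most strong results did not repeat in a second test. Of about 67,000 compounds tested this way, about 40 (0.06%) reached 50% or more in at least one test.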
C: 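Cell assay of Leishmania donovani living inside macrophages; the read-out is not stated. Compounds at 30 µM. Direction is inferred from retests: higher values go with stronger inhibition. Size under these conditions: about 69,000 compounds, about 1,000 of them at 50% or above in at least one test.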
D: 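Enzyme assay of tryptophanyl-tRNA synthetase; the read-out is not stated. Target: Tryptophan-tRNA ligase, Mycobacterium tuberculosis (UniProt P9WFT3). Compounds at 10 µM. Direction is not recorded; retested compounds ran higher, which suggests that high means inhibition. Size under these conditions: about 65,000 compounds, about 64 of them at 50% or above in at least one test.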

The filed quantity is “Percent Effect” (%).
How 0% and 100% were set is not recorded. Most values in the screen are low, and negative values occur.
This is an unselected part of the compounds tested.
Two or more numbers in one place are separate tests of the same structure; such repeats can differ widely.
A dash means the value is not listed here; it may have been measured.

Compound | A | B | C | D
Cc1ccccc1N1CCN(c2ccncn2)C(C)C1 (stereo not shown) | 15.91% | -0.9677% | 61.35% | -3.565%
CN(Cc1ccccn1)C1CC2(CCN(Cc3ccccn3)CC2)C1.O=C(O)C(F)(F)F.O=C(O)C(F)(F)F | - | - | -19.54% | -
CN(C)CC1CCN(Cc2nccn2CC(F)(F)F)CC1 | -29.46% | 7.86% | 12.08% | -5.142%
O=C(CC1CC1)N1CC[C@H]2[C@@H]1CCC(=O)N2c1cccnc1 | -15.57% | 5.398% | - | -0.4359%
CN1CSC[C@H]1C(=O)N1CCN(Cc2cccc(F)c2)CC1 | -5.758% | -6.818% | 4.358% | -2.528%
O=C(CCn1ccc(=O)[nH]c1=O)N1CCC(Oc2ccccn2)CC1 | -32.17% | 1.48% | 15.71% & 8.429% | 2.508%
Cc1cccc(CN2CC3(CCN(S(=O)(=O)C4CC4)CC3)OCC2=O)n1.O=C(O)C(F)(F)F | - | - | -2.376% | -
OC(COCc1ccccc1)CSc1nnc2ccccn12 (stereo not shown) | 5.476% | 0.861% | 12.97% | -3.762%
CCOCC1CC2(CCN(Cc3ccccn3)CC2)CO1 (stereo not shown) | -32.48% | -2.703% | 18.82% | 1.246%
Cc1ccc(S(N)(=O)=O)cc1C(=O)NC1CCN(C2CC2)CC1 | -16.42% | -5.124% | -8.494% | -3.084%
Cc1nc(N(Cc2ccncc2)CC2CCCO2)c2ccsc2n1 (stereo not shown) | -33.16% | 2.804% | 7.084% | -5.353%
CN(C)C(=O)CN1CCN(C(=O)C2CSc3ccccc3O2)CC1 (stereo not shown) | -28.96% | 4.466% | 26.31% | 8.835%
CNc1nc(CNC(=O)Nc2cccc(F)c2)cs1 | -10.89% | 5.396% | 23.71% | -3.596%
CCS(=O)(=O)N1CCc2ccc(NC(=O)Nc3cccc(C#N)c3)cc21 | 49.96% | 0.1203% | 5.477% | 1.761%
Cc1cc(CN(C)Cc2ccccc2N2CCCCC2)n[nH]1 | 9.593% | -4.895% | 26.51% | -0.2342%
CN1C(=O)COc2ccc(C(=O)Cn3cnc4ccsc4c3=O)cc21 | - | -1.337% | -8.342% | 1.929%
Cc1cc(C)nc(C2CCN(C(=O)c3c(C)noc3C)C2)n1 (stereo not shown) | 17.66% | 3.65% | 17.6% & 28.76% | 6.319%
CCCC(=O)Nc1cc2c(cc1OC)NC(=O)CC2c1ccc(CC)o1 (stereo not shown) | 20.75% | 8.754% | 77.7% | 1.677%
Cc1nc(C)n(C2CCCN(C(=O)c3ccc4[nH]nnc4c3)C2)n1 (stereo not shown) | -58.36% | 9.091% | 23.21% | 3%
Cc1ccccc1C1(CNc2nnc(C)c(C)c2C#N)CCOCC1 | -15.01% | 0.6397% | 10.87% | 2.864%
CN(C(=O)CCC(F)(F)F)c1cccc2ncccc12 | -6.985% | -0.1209% | 9.526% | -1.837%
Cc1noc(C)c1CN1CCCC2(C1)CN(c1nccs1)CCO2 (stereo not shown) | -15.06% | 3.909% | - | 0.1627%
CCOC(=O)C1CCN(C(=O)CN2CCCC2Cc2ccccc2)CC1 (stereo not shown) | -15.03% | 10.44% | 18.91% | -0.8567%
CCC[C@@H]1CN(Cc2cc3c(cc2OC)OCO3)C[C@H]1C(=O)O | -26.96% | 5.785% | 26.86% | -8.4%
CCCOc1cccc(OCc2ccon2)c1 | 1.45% | -2.138% | -6.602% | -2.721%
Cc1nc2cc(O)nn2c(C)c1CCC(=O)N(C)CCC(C)C | 4.228% | 15.02% | -14.97% | 5.006%
O=C(c1cc[nH]n1)N1CCCC1c1cncc(CN2CCOCC2)n1 (stereo not shown) | -0.4823% | 0.4854% | 18.67% | -4.017%
CN(C)CCNCCC(c1ccccc1)C1CCOC(C)(C)C1 (stereo not shown) | -6.153% | -2.071% | - | -3.145%
CC1=N[C@@]2(CC[C@@H]3CN(C(=O)NCc4cccc(F)c4)C[C@@H]32)C(=O)N1 | 6.9% | -1.826% | - | -2.368%
Cc1c(C2CCOC(C)(C)C2)nc(N)c(C#N)c1-c1ccc(O)cc1 (stereo not shown) | 26.59% | 2.357% | -5.002% | 3.613%
COC(=O)c1cc(C(=O)N2CCOC(C)(C)C2)n(-c2ccccc2)n1 | -2.516% | 6.971% | 21.6% | -8.223%
O=C(c1cc(C2CC2)on1)N1C[C@H]2CC[C@](O)(c3ccccc3F)[C@H]2C1 | -19.51% | -1.48% | - | 0.5277%
c1ccc(CCN2CCN(C3CCOC4(CCOCC4)C3)CC2)cc1 (stereo not shown) | -2.074% | -0.3764% | 34.22% | 7.039%
CC(=O)Nc1ccc2nc(-c3nccn3C[C@@H]3CCCO3)ccc2c1 | 21.27% | 3.226% | 15.17% | 5.14%
Fc1cccc(F)c1Cn1c(C2CCNCC2)cc2cccnc21 | 20.1% | -0.4932% | - | -3.298%
CS(=O)(=O)c1nccn1Cc1ccncc1 | -4.884% | 0.7371% | 22.82% | 0.2564%
CCc1nc2n(n1)CC(NCC1=Cc3ccc(OC)cc3OC1)CC2 (stereo not shown) | -4.731% | 7.585% | 13.72% | -0.4989%
COC(=O)CN(C(=O)C(C)c1c(F)cccc1F)c1cccc(C)n1 (stereo not shown) | -4.826% | -1.503% | 10.11% | 1.22%
Cc1cnn(CCNCC(=O)NCCOc2ccc(F)cc2)c1 | -1.727% | 3.781% | 18.8% | -3.595%
Cc1nonc1C1CCCN1CCC(=O)N1CCc2ccccc2C1 (stereo not shown) | -13.45% | -2.415% | -13.91% | 2.545%
CC(Cn1cccn1)NCc1ccc(Cl)s1 (stereo not shown) | -0.09145% | 3.571% | 23.57% | -8.796%
O=C(O)C(F)(F)F.[H][C@@]12CN(C(=O)c3ccc(C)nc3)C[C@]1([H])OCCN2C | - | - | 13.02% | -
CC(C)C(=O)N1CCc2nc(C(=O)Nc3cccnc3)sc2CC1 | -14.3% | 7.128% | -7.974% | -2.344%
O=C(NCC[S+]([O-])Cc1ccccc1)c1ccc2[nH]c(=O)[nH]c2c1 (stereo not shown) | -8.278% | -0.3236% | -6.448% | 2.725%
CCCN1CCC=C(C2c3nc[nH]c3CCN2C(=O)c2ccco2)C1 (stereo not shown) | -6.285% | -13.64% | -20.9% | -1.127%
CC1c2ncc(Cn3cncn3)n2CCN1C(=O)c1ccsc1 (stereo not shown) | -18.48% | -1.546% & 26.26% | 9.964% | 2.926%
CC(c1cc(F)ccc1F)N1CCN(Cc2nccn2C)CC1 (stereo not shown) | -21.04% | 0.6818% | 34.83% | -0.3894%
[H][C@]12CCN(C(=O)c3ccccc3F)C[C@@]1([H])OCCN(c1ncccn1)C2 | - | - | -10.17% | -
CS(=O)(=O)c1ccc(CNCC2CCN(CCO)CC2)cc1 | -6.07% | -18.12% | 7.016% | -0.4989%
[H][C@@]12CC(C)=CC[C@]1([H])CN(C(=O)c1ccc(-c3nnn(C)n3)cc1)C2 | - | - | 1.271% | -
[H][C@@]12CCN(Cc3cccc(C)n3)C[C@@]1([H])O[C@H](C)C2 | - | - | 14.07% | -
O=C([C@H]1CN(Cc2cccnc2)C[C@H]2OCC[C@@H]12)N1CCCO1 | -23.28% | 1.935% | - | -0.8364%
Cc1nc(CNc2ncc(Br)cn2)n[nH]1 | -8.034% | -2.206% | 12.21% | -0.2469%
CCOC(=O)N1CCN(c2nc(N3CCCC3)c3ccccc3n2)CC1 | -40.28% | 4.497% | 14.05% | -4.669%
COCC1CC2(CCNCC2)CN1c1ncccn1 (stereo not shown) | -14.71% | -5.212% | 9.212% | -0.9764%
CCOc1cc(CNCC2CN(C3CC3)CCO2)ccc1OC (stereo not shown) | -10.34% | -0.1211% | 9.057% | -2.333%
CCOC(C(=O)N1CCn2c(CC)nnc2C1)c1ccccc1 (stereo not shown) | -12.06% | 6.061% | 10.11% | 2.427%

The last 3 entries again:

{"compound": "COCC1CC2(CCNCC2)CN1c1ncccn1", "stereo": "stereo not shown", "A": -14.71, "B": -5.212, "C": 9.212, "D": -0.9764}
{"compound": "CCOc1cc(CNCC2CN(C3CC3)CCO2)ccc1OC", "stereo": "stereo not shown", "A": -10.34, "B": -0.1211, "C": 9.057, "D": -2.333}
{"compound": "CCOC(C(=O)N1CCn2c(CC)nnc2C1)c1ccccc1", "stereo": "stereo not shown", "A": -12.06, "B": 6.061, "C": 10.11, "D": 2.427}

The values are deposited in ChEMBL (CHEMBL3988442, “University of Dundee, Small-Polar-MMV Screening Library” (2021)).